Laboratory results as given in US20250283871A1, “COMPOSITIONS AND METHODS FOR MODULATING THE INTERACTION BETWEEN SS18-SSX FUSION ONCOPROTEIN AND NUCLEOSOMES” (Dana-Farber Cancer Institute, Inc., priority 2020, published 2025).

tested on: BAF complex subunits and histone proteins; assay: Mass spectrometry proteomics of purified HA-SS18 WT and HA-SS18-SSX1 complexes (Tables 5A-5E); set-up: species or system human; details: HA-SS18SSX1_CHR_peptides: protein identified in the HA-SS18-SSX1 purification from solubilized chromatin (CHR), HEK-293T

Row | Substance | Total (total peptides) | Unique (unique peptides)
1 | KAT6B | 5 | 4
2 | KDM5A | 6 | 5
3 | LAS1L | 10 | 9
4 | LENG8 | 5 | 2
5 | MDC1 | 22 | 20
6 | MDN1 | 5 | 5
7 | MGA | 6 | 6
8 | MKI67 | 20 | 19
9 | NIPBL | 19 | 18
10 | NUMA1 | 44 | 42

same assay, conditions: HA-SS18SSX1_CHR_peptides: proteins found in HA-SS18-SSX1 BAF complex purification from solubilized chromatin (CHR), HEK-293T

Row | Substance | Total (peptides) | Unique (peptides)
11 | NUMA1 | 1 | 1

same assay, conditions: HA-SS18SSX1_CHR_peptides; total peptides of the identified protein

Row | Substance | Total
12 | KDM5B | 2
13 | KIAA1429 | 4
14 | KRI1 | 1
15 | MCM3AP | 2
16 | MGST3 | 1
17 | MRPL28 | 2
18 | NIFK | 4
19 | NPM1 | 3
20 | NSD1 | 4

same assay, conditions: HA-SS18SSX1_CHR_peptides; unique peptides of the identified protein

Row | Substance | Unique
21 | KDM5B | 2
22 | KIAA1429 | 4
23 | KRI1 | 1
24 | MCM3AP | 2
25 | MGST3 | 1
26 | MRPL28 | 2
27 | NIFK | 4
28 | NPM1 | 3
29 | NSD1 | 4

same assay, conditions: HA-SS18SSX1_NE_peptides (Table 5B); HA-SS18-SSX1 BAF complex purification from soluble nuclear extract, HEK-293T

Row | Substance | Total (peptides) | Unique (peptides)
30 | MTCH1 [listing 1 of 2 here] | 1 | 1
31 | MYO19 [listing 1 of 2 here] | 1 | 1

same assay, conditions: HA-SS18SSX1_NE_peptides: protein co-purified with HA-SS18-SSX1 BAF complexes from soluble nuclear extract (NE), HEK-293T cells

Row | Substance | Total (peptides) | Unique (peptides)
32 | KCNN4 | 1 | 1
33 | KIDINS220 | 1 | 1
34 | KRTCAP2 | 1 | 1
35 | LLGL1 | 1 | 1
36 | MGST3 | 1 | 1
37 | MSI1 | 1 | 1
38 | NONO | 1 | 1

same assay, conditions: HA-SS18SSX1 purification, NE (soluble nuclear extract) fraction, HEK-293T; peptides per identified protein

Row | Substance | Total (total peptides) | Unique (unique peptides)
39 | LAS1L | 3 | 3
40 | MCM3AP | 3 | 3
41 | MYCBP2 | 3 | 3
42 | NUDT21 | 4 | 4
43 | NUMA1 | 23 | 23

same assay, conditions: HA-SS18WT_CHR_peptides: HA-SS18 WT purification from nuclease-treated solubilized chromatin (CHR), HEK-293T; label = protein identified

Row | Substance | Total (peptides) | Unique (peptides)
44 | KRI1 | 3 | 3
45 | LAS1L | 4 | 4
46 | LENG8 | 4 | 2
47 | MDC1 | 7 | 7
48 | MDN1 | 4 | 3
49 | MKI67 | 10 | 10
50 | NIFK | 5 | 5
51 | NIPBL | 10 | 10
52 | NUMA1 | 31 | 29

same assay, conditions: HA-SS18WT_CHR_peptides: protein identified in HA-SS18 WT BAF complex purification from nuclease-treated solubilized chromatin (CHR), HEK-293T

Row | Substance | Total (total peptides) | Unique (unique peptides)
53 | KAT6B | 1 | 1
54 | KIAA1429 | 1 | 1
55 | MUC5B | 1 | 1
56 | NLE1 | 1 | 1
57 | NSD1 | 2 | 2
58 | NUMA1 | 1 | 1

same assay, conditions: HA-SS18WT_NE_peptides: HA-SS18 WT complexes purified from nuclear extract (NE), HEK-293T; label = protein identified (Gene Symbol)

Row | Substance | Total (peptides) | Unique (peptides)
59 | MCM3AP | 4 | 4
60 | MYO6 | 3 | 3
61 | NUDT21 | 3 | 3
62 | NUMA1 | 14 | 14

same assay, conditions: HA-SS18WT_NE_peptides: proteins co-purified with HA-SS18 WT from nuclear extract (NE), HEK-293T

Row | Substance | Total (peptides) | Unique (peptides)
63 | KRTCAP2 | 1 | 1
64 | MDN1 | 1 | 1
65 | MKI67 | 1 | 1
66 | MSI1 | 2 | 2
67 | MTCH1 [listing 2 of 2 here] | 1 | 1
68 | MYH14 | 1 | 1
69 | MYO19 [listing 2 of 2 here] | 1 | 1
